# In PubChem BioAssay AID504444 (National Center for Advancing Translational Sciences (NCATS), 2011):
# The whole screen tested about 360,000 compounds, of which about 7,500 (2.1%) were called active. Inconclusive results, whose numbers are uncertain, are shown with a selection of clear calls. Calls come from the whole dose curve; as a rule, active = well fitted inhibition curve with a large enough effect; inconclusive = small, poorly fitted or top-dose-only effect, or effect the other way; inactive = flat fitted curve, though single readings scatter. A potency beside an inconclusive call is a rough fit, not a confirmed value.
# Test: Nrf2 qHTS screen for inhibitors; note: nearly all actives have a fitted effect of over 60% in size
# Conditions: A549 ARE-Fluc reporter, luciferase luminescence, 18-24 h; activity change, negative = inhibition: at 46 µM (top of the series)
# In short: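 Two sequential reads on A549 ARE_Fluc cells exposed to compound for 18-24 h: a CellTiter-Fluor fluorescence read for viability, then a luciferase luminescence read for Nrf2/ARE activity.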
# % is set by controls: 0 for no effect and ±100 for the full control effect; potency is the fitted concentration of half-maximal effect.
Structure (SMILES),Potency,"activity change, negative = inhibition"
C=CCn1c(=O)c2ccccc2n2c(SCc3nc4ccccc4s3)nnc12,"inconclusive: 9.2 µM [activator, partial curve]",
COC(=O)c1cc(S(=O)(=O)NCC2CCN(Cc3ccc(C)cc3)CC2)cn1C,"inconclusive: 18.4 µM [activator, partial curve, poor fit]",
Cc1cccc(NS(=O)(=O)c2ccc3c(c2)[C@H]2C=CC[C@H]2[C@@H](c2ccc(F)cc2)N3)c1,active: 18.4 µM,
CCCOc1ccc(-c2nn(-c3ccccc3)cc2C2NC(=O)NC(C)=C2C(=O)OC)cc1 (configuration not stated),"inconclusive: 0.82 µM [falling, full curve, poor fit]",
CC1Sc2ccc(S(=O)(=O)N3CCC(C(=O)NCC(C)c4ccccc4)CC3)cc2NC1=O (configuration not stated),"inconclusive: 32.6 µM [falling, single point]",
COc1ccccc1NS(=O)(=O)c1ccc2oc(SCC(=O)N3CCNC3=O)nc2c1,"inconclusive: 16.4 µM [falling, partial curve, poor fit]",
COc1ccc(S(=O)(=O)N2CCN(C(=O)c3cc(-c4ccccc4OC)n[nH]3)CC2)cc1,"inconclusive: 29.1 µM [falling, single point]",
COCC(C)n1c(C)cc(C(=O)COC(=O)c2cccn2C)c1C (configuration not stated),"inconclusive: 0.146 µM [activator, full curve, poor fit]",
C=Cc1ccc(Cn2nc(-c3ccccc3)ccc2=O)cc1,"inconclusive: 23.1 µM [falling, partial curve, poor fit]",
COc1ccc(CCNC(=O)Cn2nc(C)n3c(cc4cc(F)ccc43)c2=O)cc1OC,"inconclusive: 6.51 µM [activator, single point]",
CCc1ccc(OCCNC(=O)c2ccccc2SCc2ccc(F)cc2)cc1,"inconclusive: 18.4 µM [falling, single point]",
COc1ccc(N2CCN(C(=O)C3Cc4ccccc4CN3C(=O)c3ccccc3)CC2)cc1 (configuration not stated),"inconclusive: 32.6 µM [activator, single point]",
COc1ccc(S(=O)(=O)Nc2ccc3oc4c(c3c2)C(=O)CC(C)(C)C4)cc1,"inconclusive: 20.6 µM [falling, single point]",
Cc1nnc(NC(=O)Nc2ccc(Cl)c(Cl)c2)s1,"inconclusive: 14.6 µM [falling, partial curve]",
Cc1ccc2c(c1)S/C(=C/c1ccc[n+](C)c1)N2CCO,active: 2.59 µM,
Cc1cc(NCCCn2ccnc2)n2ncc(-c3ccc(Cl)cc3)c2n1,"inconclusive: 0.517 µM [activator, full curve, poor fit]",
O=c1[nH]c2cc3c(cc2cc1CN(Cc1ccccc1)Cc1nnnn1Cc1ccco1)OCCO3,,inactive: -21.9%
CCn1c(=O)c(C(=O)NCCCO)c(O)c2ccccc21,"inconclusive: 25.9 µM [falling, partial curve]",
COc1cccc(C(=O)Nc2cccc(NC(=O)c3ccc(Cl)cc3Cl)c2)c1,"inconclusive: 25.9 µM [falling, single point]",
Cc1ccc(C)c(N2CCN(C(=O)c3cc4c(=O)n(Cc5ccco5)ccc4nc3C)CC2)c1,"inconclusive: 9.2 µM [falling, partial curve]",
CCC(C)(C)n1nnnc1C(c1ccncc1)N1CCC(Cc2ccccc2)CC1 (configuration not stated),"inconclusive: 16.4 µM [falling, single point]",

Structure (SMILES),Potency,"activity change, negative = inhibition"
CCOc1ccc(C2c3[nH]c4ccccc4c3CCN2Cc2cccn2-c2ncccn2)cc1 (configuration not stated),"inconclusive: 20.6 µM [activator, single point]",
CN(C)S(=O)(=O)c1ccc(Nc2nc(C3CC3)nc3c2nnn3Cc2ccccc2Cl)cc1,active: 5.8 µM,
Cc1ccc(CCNC(=O)Cn2ncc3c([nH]c4ccc(C)cc43)c2=O)cc1,"inconclusive: 18.4 µM [activator, partial curve, poor fit]",
O=C(N/N=C/c1ccccn1)c1ccc(Br)cc1,"inconclusive: 20.6 µM [falling, single point]",
CC1(C2CC2)NC(=O)N(CC(=O)Nc2ccc(SC(F)F)cc2)C1=O (configuration not stated),"inconclusive: 29.1 µM [activator, single point]",
Cc1ccc(Cl)cc1N1CCN(C(=O)C2CCN(S(=O)(=O)c3cccnc3)CC2)CC1,"inconclusive: 2.31 µM [falling, partial curve, poor fit]",
COc1ccc([C@H]2CC(=O)C=C(/C=C/c3ccccc3)C2)cc1OC,"inconclusive: 20.6 µM [falling, partial curve, poor fit]",
O=C(O)CCC(=O)Nc1cccc(C(=O)Nc2cccc(Cl)c2)c1,"inconclusive: 18.4 µM [activator, single point]",
Cc1cccc(N2C(=O)CC(N3CCN(c4cccc(C(F)(F)F)c4)CC3)C2=O)c1 (configuration not stated),"inconclusive: 0.517 µM [activator, partial curve, poor fit]",
CN(C)S(=O)(=O)c1ccc(C(=O)Nc2cc(S(=O)(=O)Nc3ccccc3Cl)ccc2N2CCCCC2)cc1,"inconclusive: 2.59 µM [falling, full curve, poor fit]",
COc1ccccc1N1CCN(c2ccnc3cc(Cl)ccc23)CC1,"inconclusive: 5.17 µM [activator, partial curve]",
Cc1cc2c(cc1C)[n+](C)cn2CC(O)COCC1CC=CCC1 (configuration not stated),"inconclusive: 29.1 µM [falling, single point]",
O=C(C1=C[C@@H](c2ccc(Br)cc2)C[C@@H](OCc2ccc(CO)cc2)O1)N1CCN(Cc2ccccc2)CC1,active: 20.6 µM,
Cc1ccc(NC(=S)N2CCN(S(=O)(=O)c3ccc(C)cc3)CC2)cc1,"inconclusive: 14.6 µM [falling, partial curve, poor fit]",
COc1cc(C(=O)OCC(=O)N2CCN(S(=O)(=O)c3ccc(C)cc3C)CC2)c([N+](=O)[O-])cc1OC,,inactive: -13%
Cc1cc(C(=O)OCC(=O)N2CC(C)CC(C)C2)c(C)o1 (configuration not stated),"inconclusive: 3.26 µM [activator, partial curve, poor fit]",
Cc1cc(-c2n[nH]c(=S)n2Cc2ccco2)n(C)n1,,inactive: -15.1%
CCOC(=O)N1CCC(N2C(=O)c3ccccc3C2Nc2cc(OC)c(OC)c(OC)c2)CC1 (configuration not stated),"inconclusive: 10.3 µM [falling, partial curve, poor fit]",
CC1=C(C(=O)Nc2cccnc2)C(c2ccccc2)n2nc(SCc3ccccc3Cl)nc2N1 (configuration not stated),,inactive: -17.3% [at 9.27 µM]
CCCN1C(=O)c2ccc(C(=O)Nc3ccccc3C(=O)O)cc2C1=O,"inconclusive: 23.1 µM [activator, single point]",
CCN(CC)CCN(Cc1cc2ccc(C)cc2[nH]c1=O)C(=O)NC1CCCCC1,"inconclusive: 20.6 µM [activator, partial curve, poor fit]",

Structure (SMILES),Potency,"activity change, negative = inhibition"
CCc1nnc(NC(=O)C2CCC2)s1,"inconclusive: 4.61 µM [falling, partial curve, poor fit]",
Cc1ccc(S(=O)(=O)N2CCN(Cc3ccccc3)CC2)cc1,"inconclusive: 32.6 µM [falling, partial curve, poor fit]",
Cc1cc(Cl)ccc1OCC(=O)N1CCCN(C(=O)COc2ccc(Cl)cc2C)CC1,"inconclusive: 29.1 µM [falling, single point]",
CCSc1ncc(Cl)c(C(=O)N(Cc2ccc(N(C)C)cc2)Cc2ccco2)n1,active: 18.4 µM,
CC(=O)N1CCC2(CC1)NC(=O)N(c1ccccc1)N2,"inconclusive: 9.2 µM [falling, partial curve, poor fit]",
COc1ccc(CCN(C)C(=O)c2cc(-c3ccccc3)nc3ccc(C)cc23)cc1OC,"inconclusive: 29.1 µM [falling, partial curve, poor fit]",
Cc1cc(NCc2ccccc2Cl)n2cnnc2n1,"inconclusive: 14.6 µM [falling, partial curve]",
Cc1cccc(NC(=O)c2cc(-c3ccc4c(c3)OCCO4)on2)c1,"inconclusive: 13 µM [falling, single point]",
Cc1cc(C(=O)COc2ncnc3sccc23)c(C)n1C1CC1,,inactive: 7.95%
N#CCCN(C(=O)COC(=O)C1=NNC(=O)CC1)c1ccccc1,,inactive: -2.83%
CCCCC(=O)NC(c1ccc(OC)c(OC)c1)c1c(O)ccc2ccccc12 (configuration not stated),,inactive: -6.8%
Cc1ccc2nc(-c3ccccn3)oc2c1,"inconclusive: 2.06 µM [activator, full curve]",
O=C(N/N=C/c1ccccn1)c1cccc([N+](=O)[O-])c1,"inconclusive: 32.6 µM [falling, partial curve, poor fit]",
COc1ccc(-c2cn3ccccc3n2)cc1[N+](=O)[O-],"inconclusive: 8.2 µM [activator, partial curve]",
CCOC(=O)Cc1csc(SCC(=O)c2c(N)n(CC(C)C)c(=O)n(C)c2=O)n1,"inconclusive: 2.31 µM [falling, full curve, poor fit]",
COc1ccc(OC)c(NC(=O)CSc2cn(CC(=O)N3CCCCCC3)c3ccccc23)c1,"inconclusive: 20.6 µM [falling, partial curve, poor fit]",
C/C(=N\NC(=O)COc1ccccc1)c1cccs1,,inactive: 26.8%
CCc1nn(CC(=O)N(C)C2CCCCC2)c(=O)c2cc3cc(C)ccc3n12,"inconclusive: 10.3 µM [activator, partial curve, poor fit]",
Cc1ccc(S(=O)(=O)N2CCCC2)cc1[N+](=O)[O-],,inactive: 7%
CSc1nc(-c2ccc(Cl)cc2)nn1S(=O)(=O)c1ccccc1,"inconclusive: 18.4 µM [activator, single point]",

# Five compounds out of the list, sorted by heavy-atom count, rising:
Structure (SMILES),Potency,"activity change, negative = inhibition"
CCCN1C(=O)c2ccc(C(=O)Nc3ccccc3C(=O)O)cc2C1=O,"inconclusive: 23.1 µM [activator, single point]",
COC(=O)c1cc(S(=O)(=O)NCC2CCN(Cc3ccc(C)cc3)CC2)cn1C,"inconclusive: 18.4 µM [activator, partial curve, poor fit]",
Cc1cc(Cl)ccc1OCC(=O)N1CCCN(C(=O)COc2ccc(Cl)cc2C)CC1,"inconclusive: 29.1 µM [falling, single point]",
COc1cc(C(=O)OCC(=O)N2CCN(S(=O)(=O)c3ccc(C)cc3C)CC2)c([N+](=O)[O-])cc1OC,,inactive: -13%
CN(C)S(=O)(=O)c1ccc(C(=O)Nc2cc(S(=O)(=O)Nc3ccccc3Cl)ccc2N2CCCCC2)cc1,"inconclusive: 2.59 µM [falling, full curve, poor fit]",
